# Reference: PubChem BioAssay AID1488 (Vanderbilt High Throughput Screening Facility, 2009)
# Amino acid sequences for entries named in this document (tags omitted). A change or cut given only in a name is not applied to a line headed by its entry.
# UniProt P08482: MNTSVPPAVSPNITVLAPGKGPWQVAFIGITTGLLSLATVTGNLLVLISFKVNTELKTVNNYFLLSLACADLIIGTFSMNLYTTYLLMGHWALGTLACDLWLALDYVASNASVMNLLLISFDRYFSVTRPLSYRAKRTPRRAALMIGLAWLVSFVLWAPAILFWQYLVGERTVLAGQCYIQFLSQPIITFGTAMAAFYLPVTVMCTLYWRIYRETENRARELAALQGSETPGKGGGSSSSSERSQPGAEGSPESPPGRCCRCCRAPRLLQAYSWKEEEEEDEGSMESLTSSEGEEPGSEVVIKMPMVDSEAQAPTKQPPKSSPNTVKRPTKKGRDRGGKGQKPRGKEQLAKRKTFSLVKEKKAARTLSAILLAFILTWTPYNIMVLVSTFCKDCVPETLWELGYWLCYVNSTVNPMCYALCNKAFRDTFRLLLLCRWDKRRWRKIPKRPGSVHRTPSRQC
# The whole screen tested about 1,700 compounds, of which about 310 (18%) were called active. The inconclusive results got no clear call from the source; some entries with a clear call stand among them for comparison.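 Rule for the calls: active = fluorescence change differs from the solvent-only DMSO control mean at a set confidence level in both duplicate runs; inconclusive = differs from solvent-only control mean in just one of two runs; inactive = the rest.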
# Target: Muscarinic acetylcholine receptor M1 (Rattus norvegicus) (UniProt P08482)
# Assay: rat M1 muscarinic receptor agonists, confirmation, CHO-M1 cells, Fluo-4 calcium, duplicate retest (AID 1488);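 note: an EC20 dose of acetylcholine follows compound addition during the same imaging run; raw fluorescence intensity difference in instrument units with no normalization to controls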
# Details: Fluo-4 calcium fluorescence, agonist mode, at 10 µM, actives lie on both sides
row,Compound,fluorescence change (max-min)
1,O=C(Cn1nnc(-c2ccccc2F)n1)Nc1ccc2c(c1)OCO2,inconclusive: -21.1
2,Cc1cc(-c2ccco2)c(C#N)c2nc3ccccc3n12,inconclusive: 51.6
3,C=CCOC(=O)C1=C(C)OC(N)=C(C#N)C1c1c(C)nn(-c2ccccc2)c1Cl (centres undefined),inconclusive: -15.1
4,O=S(=O)(Nc1ccc2nc(C(F)(F)F)[nH]c2c1)c1ccccc1,inactive: -19.9
5,Cc1ccc(-c2noc(CCC(=O)NCCCN3CCN(c4cccc(Cl)c4)CC3)n2)cc1,inconclusive: -15.6
6,CN1CCN(c2nc(-c3cccs3)cc(C(F)(F)F)n2)CC1,inconclusive: -20.8
7,Cc1nc2ncnn2c(C)c1CCC(=O)NCCCN1CCN(c2cccc(Cl)c2)CC1,inconclusive: -26
8,CCn1c(C)nc2cc(S(=O)(=O)C(F)(F)C(F)C(F)(F)F)ccc21 (centres undefined),inactive: -7.43
9,N#C/C(=C\c1ccc(O)c(O)c1)S(=O)(=O)c1ccccc1,inactive: 33.4
10,COc1ccc(N2CCN(C(=O)c3ccc(NS(=O)(=O)c4ccc(F)c(F)c4)cc3)CC2)cc1,inactive: -8.51
11,CCOC(=O)N1CCN(c2ncnc3c2[nH]c2ccc(OC)cc23)CC1,inconclusive: -25.9
12,O=C(Nc1cccc2nsnc12)C1CC(=O)N(c2ccccc2)C1 (centres undefined),inconclusive: -31
13,CCCCS(=O)(=O)Nc1ccc(Cc2ccncc2)cc1,inconclusive: -23.1
14,Cc1ccc(N2CC(C(=O)Nc3ccccn3)CC2=O)cc1 (centres undefined),inconclusive: -27.1
15,Nc1nnc(N2CCc3ccccc32)s1,inconclusive: -19.8
16,Cc1nc2ccccc2c2oc(C(=O)NCC3CCCO3)cc12 (centres undefined),inconclusive: -24
17,Cc1c(NC(=O)CSC2=C(C#N)C(c3ccccc3F)CC(=O)N2)c(=O)n(-c2ccccc2)n1C (centres undefined),inactive: -27.4
18,CCN(CC)CC#CC(C)OCOCC#CCOC (centres undefined),inconclusive: -20.2
19,Cn1c(C(=O)NCCN2CCc3ccccc3C2)cc2c(=O)n(C)c3ccccc3c21,inconclusive: -15.4
20,N#Cc1c(-c2cccs2)cc(-c2cccnc2)nc1N,inconclusive: -14.3
21,O=C(CSc1nc(-c2ccco2)cc(C(F)(F)F)n1)Nc1ccc(C(=O)N2CCCCC2)cc1,inconclusive: -25.1
22,CCCC(=O)c1ccc(N2CCN(C(=O)c3ccccc3Br)CC2)c(F)c1,inconclusive: -15.7
23,c1ccc(CSc2nnnn2-c2ccc3c(c2)OCCO3)nc1,inactive: -9.73
24,COc1ccc2c(c1)[nH]c1c(=O)n(CCN3CCCC3)cnc12,inconclusive: -12.4
25,CCOc1ccc(-c2nc(CSCC(=O)N3CCN(C(=O)c4ccco4)CC3)c(C)o2)cc1,inconclusive: -17.6
26,Cn1c(=O)c2c(nc(NCc3ccccc3)n2CCCc2ccccc2)n(C)c1=O,inconclusive: -19.2

row,Compound,fluorescence change (max-min)
1,O=C(Nc1nccs1)C12CC3CC(C1)CC(C(=O)Nc1nccs1)(C3)C2,inconclusive: -23.1
2,COc1cc(NC(=O)c2cc(OC)c(OC)c(OC)c2)c(OC)cc1NC(=O)CN1CCCCC1,inconclusive: -20.1
3,CCOC(=O)c1oc2cccc(O)c2c1CN(Cc1ccccc1)C(C)=O,inconclusive: -20.6
4,CCN(C(=O)COc1cc(=O)n(CC)c2ccccc12)c1cccc(Cl)c1,inactive: -15.3
5,COc1ccc(S(=O)(=O)N(Cc2cc3ccc(OC)cc3[nH]c2=O)CC2COCCO2)cc1 (centres undefined),inactive: -12.2
6,CCOC(=O)c1oc2ccc(S(=O)(=O)Nc3ccc4c(c3)n(C)c(=O)n4C)cc2c1C,inconclusive: -16.8
7,Cn1c(CC2C(=O)Nc3ccc(Br)cc32)nc2ccccc2c1=O (centres undefined),inconclusive: -16.9
8,COCCNC(=O)c1ccccc1NC(=O)c1ccc(OC)c(OC)c1,active: -30.8
9,Cc1c(C(=O)O)oc2ccc(S(=O)(=O)N3CC(C)CC(C)C3)cc12 (centres undefined),inactive: -10.3
10,Cc1cccc2cc3c(NC(=O)C(C)C)nn(C)c3nc12,inactive: -16.3
11,c1ccc2c(c1)nc(N1CCOCC1)c1nnnn12,inactive: 33.5
12,Cc1cc(OCc2nnc(SCC(=O)OC3CCCCC3)o2)ccc1Cl,inconclusive: -19.5
13,CCOC(=O)N1CCN(C(=O)c2ccc3c(=O)n(Cc4ccccc4)c(=S)[nH]c3c2)CC1,inconclusive: -17.4
14,CC(=O)c1c(C)n(CC(=O)NCc2ccc3c(c2)OCO3)c2ccccc12,inconclusive: -17.6
15,COc1ccc(C(=O)Nc2ccc(Cl)cc2C(=O)NCc2ccco2)cc1OC,inactive: -14.1
16,COc1ccc(-c2cc(C(F)(F)F)n3ncc(C(=O)NCc4ccco4)c3n2)cc1,inactive: 9.97
17,CC(=O)N1CCN(c2ccc(NC(=O)c3ccc(C(C)(C)C)cc3)cc2)CC1,inactive: -2.77
18,CCCCOc1ccc(C(=O)Nc2ccncc2)cc1,inactive: -17
19,CCn1c(COc2ccccc2C)nnc1SCC(=O)CC(=O)Nc1ccccc1,inconclusive: -20.2
20,CCCC(OC(=O)CC1Sc2ccccc2NC1=O)C(=O)NCc1ccco1 (centres undefined),inactive: -19.3
21,Cc1ccc(S(=O)(=O)N2CCN(C(=O)CN3CCOCC3)C2c2ccccc2)cc1 (centres undefined),inactive: -12.1
22,Cc1ccc(OCC(=O)Nc2ccc(-c3nc4ncccc4o3)cc2)c(C)c1,inconclusive: -26.1
23,CN(CC1CCCO1)S(=O)(=O)c1ccc(C(=O)Nc2nc(-c3ccccn3)cs2)cc1 (centres undefined),inactive: -11.6
24,N#C/C(C(N)=O)=c1/ccc2c(c1)N1C3=C(CCCC3)CC3CCCCC31N=2 (centres undefined),inactive: -22.4
25,CCOC(=O)Cc1csc(NC(=O)CSc2ncnc3c2cnn3-c2ccccc2Cl)n1,inactive: 2.92
26,c1cnn(-c2cc(N3CCOCC3)ncn2)c1,inactive: -19

# Single values from the results shown.
# `Cc1cc(OCc2nnc(SCC(=O)OC3CCCCC3)o2)ccc1Cl` – fluorescence change (max-min): inconclusive: -19.5
# `CCCC(OC(=O)CC1Sc2ccccc2NC1=O)C(=O)NCc1ccco1` (centres undefined) – fluorescence change (max-min): inactive: -19.3
# `Cc1c(C(=O)O)oc2ccc(S(=O)(=O)N3CC(C)CC(C)C3)cc12` (centres undefined) – fluorescence change (max-min): inactive: -10.3
# `Cc1nc2ccccc2c2oc(C(=O)NCC3CCCO3)cc12` (centres undefined) – fluorescence change (max-min): inconclusive: -24

# Later entries

row,Compound,fluorescence change (max-min)
1,c1ccc2c(CCNc3ncnc4nc[nH]c34)c[nH]c2c1,inactive: -9.3
2,COCCOC(=O)C1=C(C)NC(=O)NC1c1cn(-c2ccccc2)nc1-c1cccs1 (centres undefined),inconclusive: -12.8
3,CCOc1ccc(C2=CS/C(=C(\C#N)c3nnc4n3CCCCC4)N2CC)cc1,inactive: -17.8
4,CCCCn1c(=NC(=O)c2ccc3c(c2)OCO3)c(C#N)cc2c(=O)n3cccc(C)c3nc21,inconclusive: -28.4
5,N=c1c(C(=O)NCc2ccco2)cc2c(=O)n3ccccc3nc2n1CCc1ccccc1,inactive: 38.7
6,COc1ccc(CCNc2c(C)c(C)nc3ncnn23)cc1,inactive: 15.2
7,O=C(C1CCCN(S(=O)(=O)c2cccc3cccnc23)C1)N1CCc2ccccc21 (centres undefined),inconclusive: -22.1
8,COc1ccc(N(CC(=O)NC2CCCC2)C(=O)Cn2nnc(-c3ccc(C)cc3)n2)cc1OC,inconclusive: -16.9
9,Nc1cccc2c1C(=O)N(C(=O)c1ccc(S(=O)(=O)N3CCCCCC3)cc1)C2=O,inactive: 22.9
10,CC1=C(C#N)C(=O)OC(C)(C)C1,inactive: 38.8
11,CC(=O)OC1=C(C#N)Cn2ccc3cccc1c32,inactive: 39.3
12,CCN1CCN(C(c2cccs2)C(C)NC(=O)CC(C)C)CC1 (centres undefined),inconclusive: -14.8
13,COc1cccc(N2CCN(c3ncnc4c3[nH]c3ccccc34)CC2C)c1 (centres undefined),inconclusive: -15.4
14,CCOC(=O)C1=C(CS(=O)(=O)c2ccccc2)NC(=O)NC1c1ccccc1 (centres undefined),inconclusive: -22.8
15,CCN(CC)S(=O)(=O)c1ccc(C(=O)N2CCN=C2SC)cc1,inconclusive: -23.7
16,Cc1ccc2nc(-c3cccc(NC(=O)c4ccco4)c3)[nH]c2c1,inactive: -27.8
17,COc1ccc(OC)c(N(CC(=O)Nc2ccc3c(c2)OCO3)S(=O)(=O)c2ccccc2)c1,inconclusive: -20.8
18,O=C(Nc1nc2nc(-c3ccccc3)cc(-c3ccccc3)n2n1)c1ccco1,active: -24.1
19,O=C(N1CCCC1)n1c(Cc2ccccc2)nc2ccccc21,inconclusive: -17.8
20,C(=N\n1cnnc1)/c1cccnc1,inactive: -17.4
21,CCOC(=O)N1CCC(NC(=O)c2cc3c(=O)n(C)c4ccccc4c3n2C)CC1,inconclusive: -29.8
22,CCSc1nnc(NC(=O)c2ccccn2)s1,inconclusive: -20.8
23,C=CCNc1ncnc2c1[nH]c1ccc(C)cc12,inactive: 17.9
24,Cc1cc(C)cc(OCC(=O)Nc2cccc(-c3nnc(-c4ccco4)o3)c2)c1,active: -30.3
25,COc1ccc(NC(=O)Nc2ccc3c(c2)N(C)C(=O)CS3)cc1OC,inconclusive: -13.8
26,CCN(c1ccccc1)S(=O)(=O)c1ccc(F)cc1C,inconclusive: -23.3

row,Compound,fluorescence change (max-min)
1,Cc1csc(NC(=O)c2sc3nc(-c4cccs4)ccc3c2N)n1,inconclusive: 78.1
2,CCOC(=O)CNC(=O)CSc1ncnc2c1cnn2-c1ccc(C)cc1,inactive: 5.29
3,C=CCn1c(NCCc2ccccc2)nc2c1c(=O)n(C)c(=O)n2C,inactive: 24.5
4,CC1Cc2ccccc2N1C(=O)c1ccc2snnc2c1 (centres undefined),inactive: -18.4
5,CCOC(=O)COc1ccc(S(=O)(=O)NCc2ccncc2)cc1,inactive: -6.93
6,O=C(COC(=O)CCc1c[nH]c(=O)[nH]1)Nc1ccccc1Cl,inactive: 13.2
7,COc1ccccc1N1CCN(Cc2nc(N)nc(Nc3ccc(C)c(Cl)c3)n2)CC1,inconclusive: -22.7
8,O=C(NCCCN1CCCC1=O)NC12CC3CC(CC(C3)C1)C2,inactive: 3.01
9,CCOC(=O)SC1=N/C(=C\c2ccc(N(C)C)cc2)C(=O)S1,inconclusive: -25.5
10,Cc1sc(NC(=O)CSc2nnc(COc3ccccc3)n2C)c(C#N)c1C,inconclusive: -21.3
11,O=C(c1ccco1)N1CCN(C(=O)C(Sc2ccccc2)c2ccccc2)CC1 (centres undefined),inconclusive: -21.1
12,CCOC(=O)N1CCC(NCCNC(=O)c2cccs2)CC1,active: 256
13,CCOC(=O)C1CCCN(c2cc(C)nc3cc(-c4ccc(F)cc4)nn23)C1 (centres undefined),active: 386
14,CCn1c(SCC(=O)Nc2cccc(NC(=O)c3ccco3)c2)nnc1-c1cccs1,inactive: -10.5
15,CCOC(=O)N1CCC(N2Cc3cccc(C(=O)Nc4ccc(OC)c(OC)c4)c3C2=O)CC1,inactive: -28.8
16,COc1ccc(F)cc1CN1CCN(c2cc(C)nc3c4c(C)cc(C)nc4nn23)CC1,inconclusive: -19.6
17,COc1cc2[nH]c3c(N4CCN(c5ccccn5)CC4)ncnc3c2cc1OC,inactive: -15.7
18,Cc1ccc2c(c1)c1nc3ccccc3nc1n2CCN1CCOCC1,inactive: -9.02
19,O=C(CCCn1c(=S)[nH]c2cc3c(cc2c1=O)OCO3)N1CCN(c2ccccc2)CC1,inconclusive: -22.5
20,Cc1ccc(C)c(OCC(O)CN2C(C)CCCC2C)c1 (centres undefined),active: -29.2
21,CCN1CCN(c2nc3c(C)cccn3c(=O)c2/C=C(\C#N)S(=O)(=O)c2ccc(C)cc2)CC1,inconclusive: 54.9
22,CCN=C1SC(CC(=O)Nc2ccccc2)C(=O)N1CC (centres undefined),inconclusive: -21.3
23,CCN(CC)c1nc2ccccc2nc1C(C#N)C(=O)NCCc1ccccc1 (centres undefined),active: 2070
24,Cc1nc(SCC(=O)N2CCC(C(N)=O)CC2)n[nH]1,inconclusive: -25.3
25,CC(C)Cn1c2c(c(O)c(C(=O)Nc3ccc(F)cc3)c1=O)CCCC2,inconclusive: -15.3
26,Cc1cc2oc(=O)cc(CN3CCCCC3)c2cc1C(C)C,inconclusive: -13.4
